Assay results reported in PubChem BioAssay AID248 (DTP/NCI, 2004).
The list shows only some results of the screen, not a fair sample: it gathers some chemical classes. Not every dose and run of a compound is shown. T/C: endpoint of the treated group in % of that of the vehicle group. Some entries give survivors of the animals treated and no T/C: the source holds a T/C of zero for them, seemingly a mark for toxic or unscored doses. Some doses without a T/C left all or most animals alive at the check, yet need not have been tolerated: the source hardly ever lists a survival T/C far under the control, and the zero likely stands for such cases as well. Counts of survivors are from the toxicity check (mostly the fifth day) where no day follows; animals may have died later. Schedule codes are those of the source, taken here to give the interval after Q, in days (D) or hours (H), and the number of doses after X. Where survival is the endpoint, the PubChem record calls one and a half times the control and up active, and a quarter to a half above the control has no call in these data; cut-offs in other NCI protocols can differ. Some T/C values are marked as having no survivor count here; that says nothing about deaths at the dose. Some doses were run more than once; their values stand side by side, smallest first.

Tested on: L1210 leukemia ip in BDF1 mice, survival T/C
Assay: NCI In Vivo Anticancer Drug Screen. Data for tumor model L1210 Leukemia (intraperitoneal) in B6D2F1 (BDF1) mice
Conditions: T/C endpoint: mean survival time, vehicle: saline, higher T/C = longer survival

| SMILES | T/C (dose: 100.0 mg/kg/injection, schedule: Q04DX003 (ip)) | survivor count (dose: 200.0 mg/kg/injection, schedule: Q04DX003 (ip)) | T/C (dose: 400.0 mg/kg/injection, schedule: Q04DX003 (ip)) | T/C (dose: 6.25 mg/kg/injection, schedule: Q01DX009 (ip)) | T/C (dose: 12.5 mg/kg/injection, schedule: Q01DX009 (ip)) | T/C (dose: 25.0 mg/kg/injection, schedule: Q01DX009 (ip)) | T/C (dose: 50.0 mg/kg/injection, schedule: Q01DX009 (ip)) |
| --- | --- | --- | --- | --- | --- | --- | --- |
| N#CSc1ccc([N+](=O)[O-])cc1[N+](=O)[O-] | 95 % of control | 5 of 6 | 95 % of control | – | – | – | – |
| CC(C)N(C)CCCl | – | – | – | 100 % of control [survivor count not shown] | 96 % of control [survivor count not shown] | 102 [survivor count not shown] and 110 % of control [survivor count not shown] | 97 % of control [survivor count not shown] |
